# Screen size: about 400,000 compounds; about 13,000 (3.2%) were called active. This list was built around the results that the source calls inconclusive (neither active nor inactive); the mix of calls is not that of the screen. Calls follow the shape of the dose curve; as a rule, active = well fitted cell-killing curve with a large enough effect; inconclusive = small, poorly fitted or top-dose-only effect, or effect the other way; inactive = flat fitted curve, though single readings scatter. Potencies of inconclusive entries are doubtful fits and often do not repeat.
# Test: qHTS assay for MDR1-selective chemotherapeutics: Primary screen using the drug-selected MDR subline cells KB-V1; also: nearly all actives have a fitted effect of over 60% in size
# Settings: KB-V1 MDR cells viability, CellTiter-Glo, 72 h; activity change, negative = cytotoxicity: at 46.1 µM (top of the series)
# Outline: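 qHTS viability screen in drug-selected KB-V1 MDR cells: 72 h compound treatment at 37 degrees C, ATP luminescence end point.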
# % is scaled to controls: 0 for no effect and ±100 for the full control effect; potency is read from the fitted curve at half-maximal effect.
Structure (SMILES),Potency,"activity change, negative = cytotoxicity"
CCOc1ccc(S(=O)(=O)N(CC(=O)N/N=C/c2cccs2)c2ccc(C)cc2)cc1,active: 23.1 µM,–
Cc1ccc(-n2c(C)cc(/C=N/Nc3ccc([N+](=O)[O-])cn3)c2C)cc1,"inconclusive: 7.31 µM [cytotoxic, partial curve, poor fit]",–
COC(=O)c1ccc(NC(C)=O)o1,"inconclusive: 6.51 µM [rising, partial curve]",–
Cc1cccc(Nc2nc(N)c([N+](=O)[O-])c(N3CC(C)CC(C)C3)n2)c1 (centres undefined),active: 20.6 µM,–
COc1ccc(NC(=O)c2cc(-c3cc(OC)c(OC)c(OC)c3)nc3ccccc23)c(OC)c1,"inconclusive: 29.1 µM [cytotoxic, single point]",–
O=C(Nc1ccc(S(=O)(=O)N2CCOCC2)cc1)c1cc(-c2cc(Cl)ccc2O)n[nH]1,"inconclusive: 18.4 µM [cytotoxic, single point]",–
CC(C)n1ncc2c(C(=O)NCC(=O)Nc3ccccc3Br)cc(C3CC3)nc21,"inconclusive: 23.1 µM [cytotoxic, single point]",–
CC(C)C(c1nnnn1Cc1ccc(F)cc1)N1CCN(C2CCCCC2)CC1 (centres undefined),"inconclusive: 8.2 µM [cytotoxic, partial curve]",–
Cc1ccc(OCCNC(=O)c2ccccc2SCC(=O)N2CCCC2)cc1,"inconclusive: 8.2 µM [cytotoxic, partial curve]",–
C=CCn1c(-c2cccc(OC)c2OC)n[nH]c1=S,"inconclusive: 20.6 µM [cytotoxic, partial curve]",–
COCCCNC(=O)Nc1ccc(F)cc1F,"inconclusive: 25.9 µM [rising, partial curve, poor fit]",–
Cc1ccc(CNS(=O)(=O)c2c(C)nc3scc(C)n3c2=O)cc1,"inconclusive: 23.1 µM [rising, single point]",–
Cc1ccc(NC(=O)C(Cc2ccccc2)N2C(=O)C3C4CCC(C4)C3C2=O)cc1Cl (centres undefined),"inconclusive: 18.4 µM [cytotoxic, single point]",–
CCOc1ccc(C2C(C(=O)c3ccco3)=C(O)C(=O)N2CCCn2ccnc2)cc1OCC (centres undefined),"inconclusive: 2.59 µM [rising, full curve]",–
O=C1[C@H]2[C@@H](c3ccc(C(F)(F)F)cc3)N[C@]3(CCCN(Cc4ccc(F)cc4)C3=O)[C@H]2C(=O)N1Cc1ccccc1,"inconclusive: 10.3 µM [cytotoxic, partial curve, poor fit]",–
C=CCN(Cc1nc(-c2ccccc2)no1)C(=O)c1ccoc1C,"inconclusive: 23.1 µM [cytotoxic, single point]",–
COC(=O)C1=CO[C@@H](C)[C@H]2CN3CCc4c([nH]c5ccccc45)[C@@H]3C[C@H]12,"inconclusive: 29.1 µM [cytotoxic, single point]",–
O=S(=O)(c1ccccc1)N1CCC(c2ccncc2)CC1,"inconclusive: 29.1 µM [cytotoxic, single point]",–
O=C1COc2cc(S(=O)(=O)CCC(=O)N3CCN(c4cccc(Cl)c4)CC3)c(Cl)cc2N1,"inconclusive: 18.4 µM [cytotoxic, single point]",–
CNc1cc(-c2cccc(OC)c2F)nc2ccnn12,"inconclusive: 10.3 µM [cytotoxic, partial curve, poor fit]",–
CCc1nc2c(OCc3c(C)noc3C)cccn2c1N(C=O)Cc1ccccc1,–,inactive: -1.01%
O=S(=O)(c1ccc(NC(=S)N2CCCCC2)cc1)N1CCCCC1,"inconclusive: 14.6 µM [cytotoxic, partial curve]",–
Cc1ccc2c(c1)c1c(c(=O)n(-c3ccccc3C)c(=O)n1CC(=O)NCCC1=CCCCC1)n2C,–,inactive: -29.3%

Structure (SMILES),Potency,"activity change, negative = cytotoxicity"
Cc1ccc(CNC(=O)c2cncc(Br)c2)cc1,–,inactive: 13.8%
COC(=O)c1ccc(CNC(=O)COC(=O)/C=C/c2ccc(O)c(OC)c2)cc1,–,inactive: 0%
N=c1c2c(-c3ccccc3)c(-c3ccccc3)n(Cc3ccco3)c2ncn1Cc1ccccc1,–,inactive: 2.64%
CS(=O)(=O)N(CC(=O)N1CCCC1)c1ccc(Cl)c(Cl)c1,"inconclusive: 23.1 µM [cytotoxic, partial curve, poor fit]",–
COc1ccc(CNCc2c(C(=O)O)c(C)n(Cc3ccc(Cl)cc3)c2C)c(OC)c1,–,inactive: -8.17%
CCOc1ccc(C(CCc2ccccc2)NC(=O)c2ccccc2OC)cc1OCC (centres undefined),"inconclusive: 20.6 µM [cytotoxic, single point]",–
COc1ccc(-c2cc(C(=O)Nc3c(Cl)cccc3Cl)no2)cc1OC,–,inactive: 4.56%
Cc1cccc(N2CCN(C(=O)c3ccccc3OCc3c(C)noc3C)CC2)c1C,–,inactive: -26.2%
O=c1[nH]c(CN2CCc3ccccc3C2)nc2ccccc12,"inconclusive: 16.4 µM [cytotoxic, single point]",–
Cc1ccc(-n2c3c(c(=O)[nH]c2=O)C(NC(=O)c2ccccc2F)(C(F)(F)F)C(=O)N3)cc1C (centres undefined),–,inactive: 5.52%
CN(C)S(=O)(=O)c1cc(NC(=O)CSc2nn(-c3ccc(Cl)cc3)c(=S)s2)ccc1Cl,active: 16.4 µM,–
COC(=O)[C@@]1(Cc2ccc(OC)cc2)[C@@H]2C(=CC(=O)[C@H]2CC(=O)C(=O)N(C)C)CN1C(=O)c1ccccc1,"inconclusive: 29.1 µM [cytotoxic, single point]",–
C[C@@H](NC(=O)c1[nH]cnc1C(=O)Nc1ccccc1)c1ccccc1,"inconclusive: 29.1 µM [cytotoxic, single point]",–
COc1cccc(OC)c1-c1nn(-c2ncc(C(F)(F)F)cc2Cl)c(=O)o1,–,inactive: -7.98%
O=C(Nc1ccccc1)c1ccccc1N=Cc1ccccc1O,"inconclusive: 0.58 µM [rising, partial curve, poor fit]",–
COc1ccc(CCNC(=O)c2c(O)c3ccccc3[nH]c2=O)cc1,"inconclusive: 20.6 µM [rising, single point]",–
CN(C)C(=O)/C=C\c1cn(-c2ccccc2)nc1-c1ccc2c(c1)OCCO2,"inconclusive: 18.4 µM [cytotoxic, single point]",–
CN(Cc1cccs1)S(=O)(=O)c1cccs1,"inconclusive: 25.9 µM [cytotoxic, partial curve, poor fit]",–
Fc1ccc(Nc2nnc(C(F)(F)F)s2)cc1Cl,"inconclusive: 29.1 µM [cytotoxic, single point]",–
COc1cc(C)ccc1OCc1cc(C(=O)N(C)CCCN2CCOCC2)no1,–,inactive: -21.9%
COc1cccc(CN(C)C(=O)c2ccc(Oc3ccccc3)cc2)c1OC,–,inactive: -19.3%
Cc1cccc(NC(=O)Nc2ccc(C#N)cc2)n1,"inconclusive: 13 µM [cytotoxic, partial curve]",–
O=C(Cc1ccccc1)N1CCCC(c2nc(-c3ccc(S(=O)(=O)N4CCCC4)cc3)no2)C1 (centres undefined),active: 9.2 µM,–

Structure (SMILES),Potency,"activity change, negative = cytotoxicity"
Cc1ccc(S(=O)(=O)N(C)c2ccc3c(c2)C(=O)c2ccccc2-3)cc1,active: 20.6 µM,–
COc1ccc(C(=O)COC(=O)c2ccc(NC(=O)c3ccccc3)cc2)cc1,active: 14.6 µM,–
CC(C)N(C(=O)CSc1nc2ccccc2c(=O)[nH]1)C(C)C,"inconclusive: 25.9 µM [cytotoxic, partial curve]",–
Cc1ccc(S(=O)(=O)N2CCC(C(=O)Nc3ccccc3N3CCCC3)CC2)cc1C,"inconclusive: 7.31 µM [cytotoxic, partial curve]",–
Cc1ccc2ncc(C)c(/C=C/c3ccc(N(C)C)cc3)c2c1,"inconclusive: 18.4 µM [cytotoxic, single point]",–
CC(=O)N1CCN(S(=O)(=O)c2ccc(C)c([N+](=O)[O-])c2)C1C(C)C (centres undefined),"inconclusive: 23.1 µM [rising, single point]",–
COc1ccc(Cl)cc1NC(=O)CN(c1cc(C)cc(C)c1)S(=O)(=O)c1c(C)n[nH]c1C,"inconclusive: 25.9 µM [cytotoxic, partial curve, poor fit]",–
O=C(CCn1c(=S)oc2ccccc21)N1CCCCC1,–,inactive: -5.78%
COc1ccccc1NC(=O)c1ccc([N+](=O)[O-])cc1[N+](=O)[O-],–,inactive: -0.774%
CCc1ccc(NC(=O)c2cc3c(=O)n(Cc4cccs4)ccc3nc2C)cc1,–,inactive: 6.37%
Cc1ccc(S(=O)(=O)N2CCN(C(=O)c3c(-c4ccccc4)noc3C)CC2)c(C)c1,–,inconclusive: 56.8%
COc1c(C)oc2cc(O)ccc2c1=O,"inconclusive: 13 µM [rising, single point]",–
COc1ccc(CNC(=O)[C@@H](Cc2ccccc2)NC(=O)CC[C@H]2O[C@@H](n3ccc(=O)[nH]c3=O)[C@H](O)[C@@H]2O)cc1,"inconclusive: 20.6 µM [rising, partial curve, poor fit]",–
Cc1ccc(S(=O)(=O)N2CCN(C(=O)Cn3c(=O)oc4ccccc43)CC2)c(C)c1,–,inactive: 10.1%
O=C(COC(=O)c1cnc(Cl)c(Cl)c1)NC1CCCC1,–,inactive: 17.9%
O=C(COC(=O)/C=C/c1ccccc1)NC1CCS(=O)(=O)C1 (centres undefined),"inconclusive: 32.6 µM [rising, single point]",–
Cc1cc(=O)[nH]c(SCc2csc(-c3ccccc3)n2)n1,active: 23.1 µM,–
CCN(CC)CC(=O)Nc1c(C)cccc1C,inactive,–
O=C(O)c1cccc2c1Oc1ccccc1S2(=O)=O,"inconclusive: 29.1 µM [cytotoxic, single point]",–
Cc1nnc(NS(=O)(=O)c2ccc(F)cc2)s1,"inconclusive: 16.4 µM [rising, partial curve, poor fit]",–
CC1(C(=O)NC2CCCCC2)CCC(=O)N1Cc1ccc2c(c1)OCO2 (centres undefined),–,inactive: -26.7%
CNS(=O)(=O)c1cn(CC(=O)Nc2ccc(C)cc2C)cc1S(=O)(=O)NC,–,inactive: 14.9%
O=S(=O)(Nc1ccc(S(=O)(=O)N2CCCC2)cc1)c1ccccc1Br,"inconclusive: 20.6 µM [cytotoxic, single point]",–

# Some of these compounds in order of SMILES length, smallest number first:
Structure (SMILES),Potency,"activity change, negative = cytotoxicity"
COc1ccccc1NC(=O)c1ccc([N+](=O)[O-])cc1[N+](=O)[O-],–,inactive: -0.774%
CC(=O)N1CCN(S(=O)(=O)c2ccc(C)c([N+](=O)[O-])c2)C1C(C)C (centres undefined),"inconclusive: 23.1 µM [rising, single point]",–
COC(=O)C1=CO[C@@H](C)[C@H]2CN3CCc4c([nH]c5ccccc45)[C@@H]3C[C@H]12,"inconclusive: 29.1 µM [cytotoxic, single point]",–
O=C1[C@H]2[C@@H](c3ccc(C(F)(F)F)cc3)N[C@]3(CCCN(Cc4ccc(F)cc4)C3=O)[C@H]2C(=O)N1Cc1ccccc1,"inconclusive: 10.3 µM [cytotoxic, partial curve, poor fit]",–

# From PubChem BioAssay AID1347076 (National Center for Advancing Translational Sciences (NCATS), 2019)
